{"source": "PubChem BioAssay AID504467", "about": "(National Center for Advancing Translational Sciences (NCATS), 2011)", "note": "The campaign covered roughly 330,000 compounds. About 7,700 (2.3%) were called active. The shares of active, inactive and inconclusive entries below differ from those in the screen. The call rests on the fitted dose curve; in most records, active means well fitted inhibition curve with a large enough effect; inconclusive means small, poorly fitted or top-dose-only effect, or effect the other way; inactive means flat fitted curve, though single readings scatter. A potency beside an inconclusive call is a rough fit, not a confirmed value.", "data": [{"test": "qHTS screen for small molecules that inhibit ELG1-dependent DNA repair in human embryonic kidney (HEK293T) cells expressing luciferase-tagged ELG1; further: nearly all actives have a fitted effect of over 55% in size; further: potency means the concentration at half of the fitted maximal effect", "details": "HEK293T ELG1-luciferase reporter, luminescence, 16 h, DNA damage induced by 5-fluorouridine; series mostly up to 46.1 µM", "summary_of_the_method": "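Step one: seed 2,000 cells per well. Step two: pin-transfer compound or DMSO alongside 5-fluorouridine. Step three: incubate 16 hr, 37 °C, 5% CO2. Step four: add ONE-Glo, wait 30 min, read luminescence.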", "values": [{"compound": "Cc1ccccc1-n1ncc2c1CC(C)(C)CC2NC(=O)c1ccncc1", "note": "(stereo not given)", "Potency": "inactive"}, {"compound": "CCOc1ccc(OCC)c(NC(=O)CSc2nc3c(c(=O)n(C)c(=O)n3C)n2C(C)C)c1", "Potency": "active: 11.6 µM"}, {"compound": "CC(=O)Nc1ccccc1C(=O)C(=O)Nc1ccc(F)c(Cl)c1", "Potency": "inconclusive: 18.3 µM [activator, single point]"}, {"compound": "CCOc1ccc(-c2c(=O)n(OCc3ccccc3Br)c3ccccc3[n+]2[O-])c(OCC)c1", "Potency": "inconclusive: 29.1 µM [inhibitor, single point]"}, {"compound": "O=C(COc1ccc(Cl)cc1Cl)N/N=C/c1ccc[nH]1", "Potency": "inconclusive: 11.6 µM [activator, single point]"}, {"compound": "CN(C)CCNC(=O)c1onc(CSc2ccc(F)c(F)c2)c1C(=O)NCCN(C)C", "Potency": "inconclusive: 10.3 µM [activator, partial curve, poor fit]"}, {"compound": "O=C(CN1CCN(c2ncccn2)CC1)Nc1ccccc1C(F)(F)F", "Potency": "inconclusive: 20.6 µM [inhibitor, single point]"}, {"compound": "Nc1nc(CN2CCN(c3ccccc3F)CC2)nc(N2CCCc3ccccc32)n1", "Potency": "inactive"}, {"compound": "COc1ccc([C@H]2[C@H](C(=O)OC(C)(C)C)N3N=Cc4ccccc4C3C23C(=O)c2ccccc2C3=O)c(OC)c1", "note": "(stereo not given in full)", "Potency": "inactive"}, {"compound": "CNC(=O)c1ccc(-c2ccc(F)cc2)s1", "Potency": "inconclusive: 11.6 µM [activator, partial curve]"}, {"compound": "COc1ccccc1C(=O)Nc1cc(C)c(OCC(=O)N2CCOCC2)c(C)c1", "Potency": "inactive"}, {"compound": "O=C(CSc1ncccn1)NN=C1CCCCCCC1", "Potency": "inactive"}, {"compound": "COc1cc(-c2nc3cnccn3c2Nc2ccc(C(C)C)cc2)ccc1O", "Potency": "inconclusive: 29.1 µM [inhibitor, single point]"}, {"compound": "CNC(=O)N(C1=NCC(C)S1)c1ccc(F)cc1F", "note": "(stereo not given)", "Potency": "inconclusive: 35.5 µM [activator, single point]"}, {"compound": "Cc1cc(C)nc(-n2nc(C)c(Br)c2Nc2ccc(Br)cc2)n1", "Potency": "inconclusive: 18.4 µM [activator, single point]"}, {"compound": "O=[N+]([O-])c1cccc(C2NCC(c3ccccc3Cl)c3c2[nH]c2ccccc32)c1", "note": "(stereo not given)", "Potency": "inconclusive: 29.1 µM [inhibitor, single point]"}, {"compound": "CCCCCCCC[n+]1cccc2c3ccccc3ccc21", "Potency": "inconclusive: 2.31 µM [inhibitor, partial curve, poor fit]"}, {"compound": "O=C(C1=C[C@@H](c2csc3ccccc23)C[C@@H](OCc2ccc(CO)cc2)O1)N1CCOCC1", "Potency": "inconclusive: 16.4 µM [inhibitor, single point]"}, {"compound": "O=C(NCC(c1cccs1)N1CCOCC1)c1cc(-c2ccc(F)cc2)nc2ccccc12", "note": "(stereo not given)", "Potency": "inconclusive: 16.4 µM [inhibitor, single point]"}, {"compound": "Cc1ccc(-n2ncc3c2ncn2c(-c4ccncc4)nnc32)cc1", "Potency": "inconclusive: 23.1 µM [activator, partial curve, poor fit]"}, {"compound": "CC(/C=N\\NC(=O)CN1CCN(Cc2ccccc2)CC1)=C\\c1ccco1", "Potency": "inconclusive: 0.164 µM [inhibitor, single point]"}, {"compound": "CC(C)CCn1c(N2CCN(Cc3ccccc3)CC2)nc2c1c(=O)[nH]c(=O)n2C", "Potency": "inconclusive: 20.6 µM [inhibitor, single point]"}, {"compound": "CCOc1ncccc1C(=O)Nc1nc(SC)ns1", "Potency": "inconclusive: 13 µM [activator, partial curve]"}, {"compound": "O=C(c1cnc2nc3ccccc3n2c1)c1cc(F)ccc1O", "Potency": "inconclusive: 20.6 µM [activator, partial curve]"}, {"compound": "CN(c1cccc(NC(=O)c2cccc([N+](=O)[O-])c2)c1)S(C)(=O)=O", "Potency": "inconclusive: 29.1 µM [inhibitor, single point]"}, {"compound": "CN(C)c1nnc(-c2ccc(Cl)cc2)o1", "Potency": "inconclusive: 16.4 µM [activator, single point]"}, {"compound": "CCOc1ccc(-n2c(SCc3nc(-c4cccs4)no3)nnc2-c2ccncc2)cc1", "Potency": "inactive"}, {"compound": "COc1ccc(NC(=O)CN(C)C(=O)C2(c3ccccc3)CCCC2)cc1", "Potency": "inconclusive: 10.3 µM [inhibitor, partial curve]"}, {"compound": "CC(C)(C)n1cnc2cc(NC(=O)c3ccccc3)ccc21", "Potency": "inconclusive: 2.82 µM [activator, partial curve]"}, {"compound": "Cc1c(C)n(Cc2ccccc2)c2ccc(C(=O)NCCN3CCOCC3)cc12", "Potency": "inactive"}, {"compound": "CCOC(=O)c1ccc(N=c2sc(C(=O)OC)cc(=O)n2C2CC2)cc1", "Potency": "inactive"}, {"compound": "Fc1ccccc1Cc1noc(CN2CCN(C/C=C/c3ccccc3)CC2)n1", "Potency": "inconclusive: 18.3 µM [inhibitor, single point]"}, {"compound": "Cc1ccccc1C(=O)N1CCc2c([nH]c3ccccc23)C1C(F)(F)F", "note": "(stereo not given)", "Potency": "active: 13 µM"}, {"compound": "Cn1c(SCc2cccc(F)c2)nnc1-c1ccccn1", "Potency": "inconclusive: 18.4 µM [activator, partial curve]"}, {"compound": "CCO[C@H]1OC(C(=O)NC2CC2)=C[C@@H](c2ccccc2)[C@@H]1CCCO", "Potency": "inconclusive: 23.1 µM [inhibitor, partial curve, poor fit]"}, {"compound": "O=C(CN1CCCC1)Nc1c2c(nc3ccccc13)N(Cc1ccccc1)CC2", "Potency": "inactive"}, {"compound": "CCOc1ccccc1N1CCN(C(=O)c2ccc(OCC(=O)N3CCOCC3)c(OC)c2)CC1", "Potency": "inactive"}, {"compound": "COc1ccc(Br)cc1C(=O)Nc1ccc(O)cc1", "Potency": "inactive"}, {"compound": "O=C1CCCN1c1ccc(S(=O)(=O)NCCc2ccc(Cl)cc2)cc1", "Potency": "inactive"}, {"compound": "C/C(=N/NC(=O)CNC(=O)C1COc2ccccc2O1)c1ccc([N+](=O)[O-])cc1", "note": "(stereo not given)", "Potency": "inactive"}, {"compound": "COc1cc(NC(=O)c2cc(-c3ccccc3)nc3c2cnn3C(C)C)cc(OC)c1OC", "Potency": "active: 3.66 µM"}, {"compound": "O=C(CSc1ccccn1)Nc1ccc(N2CCOCC2)cc1", "Potency": "inactive"}, {"compound": "O=C(N/N=C/c1sc(N2CCCCC2)nc1-c1cccs1)C1CC1", "Potency": "inconclusive: 29.1 µM [inhibitor, single point]"}, {"compound": "COc1cccc(NC(C(=O)Nc2cccc(C(C)=O)c2)c2ccccc2)c1", "note": "(stereo not given)", "Potency": "inactive"}, {"compound": "Cc1oc(-c2ccccc2F)nc1CSCC(=O)NC1CCC(C)CC1", "note": "(stereo not given)", "Potency": "inconclusive: 32.6 µM [inhibitor, single point]"}]}]}
